# Measured values from the supplement of paper PMC3334620.
# Over roughly 33,000 sequences, “E-score (-0.5 to 0.5)” has its median near -0.015; the highest 2% begin near 0.3. This is one part of the list.
# Molecular target: T1, Abf1 (UniProt P14164)
# T1 sequence: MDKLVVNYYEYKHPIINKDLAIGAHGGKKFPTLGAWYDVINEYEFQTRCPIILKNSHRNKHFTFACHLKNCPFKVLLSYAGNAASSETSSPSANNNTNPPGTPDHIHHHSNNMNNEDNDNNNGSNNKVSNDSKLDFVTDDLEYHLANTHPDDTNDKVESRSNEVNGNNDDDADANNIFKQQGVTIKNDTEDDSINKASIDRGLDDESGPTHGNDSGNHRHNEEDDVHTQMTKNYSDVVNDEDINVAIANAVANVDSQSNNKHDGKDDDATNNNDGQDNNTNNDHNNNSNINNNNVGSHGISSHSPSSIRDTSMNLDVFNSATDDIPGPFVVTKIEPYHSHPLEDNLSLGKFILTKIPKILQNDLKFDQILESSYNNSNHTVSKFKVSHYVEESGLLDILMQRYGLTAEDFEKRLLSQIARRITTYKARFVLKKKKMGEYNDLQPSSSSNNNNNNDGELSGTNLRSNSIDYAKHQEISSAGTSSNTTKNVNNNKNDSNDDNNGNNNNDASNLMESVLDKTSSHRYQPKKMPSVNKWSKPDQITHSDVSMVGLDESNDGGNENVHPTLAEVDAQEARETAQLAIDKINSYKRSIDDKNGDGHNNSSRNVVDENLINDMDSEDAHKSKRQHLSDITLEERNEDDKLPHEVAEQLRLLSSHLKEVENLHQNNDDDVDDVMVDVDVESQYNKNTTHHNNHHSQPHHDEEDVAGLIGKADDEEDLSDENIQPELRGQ
# Test: PBM E-score (8-mer binding enrichment) (E-score (-0.5 to 0.5)); higher = stronger / more preferred TF binding
# Details: protein concentration: 200 nM; construct: GST-full length
# Procedure: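 Universal 'all 10-mer' protein binding microarrays (Agilent AMADID 015681) probed with GST-tagged S. cerevisiae TFs (full-length or DBD) made by in vitro transcription/translation (PURExpress), about 100-200 nM. Bound TF was detected with fluorescent anti-GST. Each ungapped 8-mer (which stands for itself and its reverse complement) is scored by the PBM enrichment score (E-score), a modified Wilcoxon-Mann-Whitney statistic from -0.5 to +0.5, computed with the Universal PBM Analysis Suite. Scale: above 0.35 generally sequence-specific binding.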
row,Sequence,PBM E-score
1,TATGCCAA,0.0855
2,CCGGTGAA,0.0628
3,AGTGGAGC,-0.277
4,ATAAATCA,0.145
5,GCATTAGA,0.0201
6,CCCTGCAC,0.0099
7,GCGCCGAC,-0.207
8,AACTTGAC,-0.0116
9,CTACGGAA,0.139
10,GGTACTCA,-0.112
11,ATAGCGAT,0.143
12,AGGGCCTC,-0.197
13,CGCGGTAA,0.0434
14,AAGGCTGT,-0.129
15,GGTCGAAA,-0.178
16,GACCCTAC,-0.152
17,CTGCCGTA,0.122
18,GCACCATA,-0.0753
19,CTTTTGTC,0.121
20,TATCACAA,0.25
21,CCCTTCAC,0.0406
22,GGTTCGTA,0.14

# Quoted at random: 3 records from the list
row,Sequence,PBM E-score
17,CTGCCGTA,0.122
9,CTACGGAA,0.139
20,TATCACAA,0.25

# Next part

row,Sequence,PBM E-score
1,TCTTTACA,0.142
2,CGCTCCAC,-0.204
3,CATTTTAG,0.183
4,ACAGCCTC,-0.109
5,AGCTAAAA,0.136
6,ATGGCATG,0.198
7,TAGAGCAA,-0.183
8,ATTCGAAG,-0.0148
9,CAGCTCAG,-0.158
10,GTCGGCGA,-0.0615
11,TGATCGAA,0.0658
12,TATGCCGA,0.0554
13,AATGGTGT,0.0771
14,ATATTTCC,0.104
15,CCTGTCCC,-0.3
16,TAACGATA,0.36
17,AGAACCTG,-0.138
18,ATGTCGTA,0.235
19,GATTAAAC,0.102
20,CGTGTCCA,-0.124
21,AGGGACTC,-0.269
22,ACCAAGTG,-0.167

row,Sequence,PBM E-score
1,AGGGCGGA,-0.304
2,CATACAGA,0.0185
3,ATGGAGGC,-0.0901
4,CTACGTAA,0.0361
5,ATGCCTGC,-0.204
6,AAGTTCGA,-0.141
7,CTTCTGCC,-0.128
8,GTTTGGCA,0.132
9,AGCGACAA,0.215
10,AAGGTTTG,0.0201
11,GCCGTCAA,0.258
12,CGAGCTTA,-0.0534
13,CCTGATCC,-0.0929
14,AAGCTTGT,-0.0896
15,AAATACCC,-0.00592
16,TATGGCAA,0.0534
17,CCTATCTC,-0.104
18,CTGGAGCA,-0.115
19,GACGGCTC,-0.00134
20,AGGGCTCA,-0.145
21,ACAGTACT,-0.126
22,CTCCCGTC,0.111

row,Sequence,PBM E-score
1,AATCGGGA,-0.103
2,CTATCGAC,0.0621
3,GCAAAGCA,-0.184
4,GCTCGGCC,-0.243
5,AGTCAACT,-0.296
6,CTAGTGCA,0.139
7,CTGTACGC,-0.106
8,GCCGAAAA,0.173
9,GCCAAACA,-0.0646
10,TGTGCCAA,0.0348
11,GCCGCACC,-0.0586
12,CCTGACAG,-0.0556
13,CCAAGCTC,-0.0331
14,CACAATAA,-0.112
15,CAGTATTC,0.0329
16,CAATCGGC,-0.152
17,ACAAATTC,0.0246
18,CTGATCAA,-0.114
19,CATCGGAG,-0.175
20,CCAGCAGA,-0.0609

# A stretch from the list above, for reference:
row,Sequence,PBM E-score
6,CTAGTGCA,0.139
7,CTGTACGC,-0.106
